Results are given in words; binding and its absence hold for the method and conditions named. Binding seen in cells or lysates may run through a third protein. These calls come from enrichment with a bait or labelling near it, and not all partners need be listed.
Biological target: 3xHA-BASU-MAB21L4 (human) (UniProt Q08AI8)
Test: proximity labelling

Protein sequences, listed by entry. Tags and fused reporters are not part of them.
UniProt Q08AI8: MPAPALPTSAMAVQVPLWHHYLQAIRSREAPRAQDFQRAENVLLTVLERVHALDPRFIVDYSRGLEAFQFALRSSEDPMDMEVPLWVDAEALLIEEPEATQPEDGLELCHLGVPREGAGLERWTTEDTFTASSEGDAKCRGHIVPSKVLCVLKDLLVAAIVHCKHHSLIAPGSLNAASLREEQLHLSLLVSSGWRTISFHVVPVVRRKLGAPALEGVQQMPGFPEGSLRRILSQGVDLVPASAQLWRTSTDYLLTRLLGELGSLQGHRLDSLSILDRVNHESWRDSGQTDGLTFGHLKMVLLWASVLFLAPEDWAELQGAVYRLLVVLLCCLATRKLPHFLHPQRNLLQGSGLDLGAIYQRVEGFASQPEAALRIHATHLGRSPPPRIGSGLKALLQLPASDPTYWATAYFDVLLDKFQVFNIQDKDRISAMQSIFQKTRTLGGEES
UniProt O60437: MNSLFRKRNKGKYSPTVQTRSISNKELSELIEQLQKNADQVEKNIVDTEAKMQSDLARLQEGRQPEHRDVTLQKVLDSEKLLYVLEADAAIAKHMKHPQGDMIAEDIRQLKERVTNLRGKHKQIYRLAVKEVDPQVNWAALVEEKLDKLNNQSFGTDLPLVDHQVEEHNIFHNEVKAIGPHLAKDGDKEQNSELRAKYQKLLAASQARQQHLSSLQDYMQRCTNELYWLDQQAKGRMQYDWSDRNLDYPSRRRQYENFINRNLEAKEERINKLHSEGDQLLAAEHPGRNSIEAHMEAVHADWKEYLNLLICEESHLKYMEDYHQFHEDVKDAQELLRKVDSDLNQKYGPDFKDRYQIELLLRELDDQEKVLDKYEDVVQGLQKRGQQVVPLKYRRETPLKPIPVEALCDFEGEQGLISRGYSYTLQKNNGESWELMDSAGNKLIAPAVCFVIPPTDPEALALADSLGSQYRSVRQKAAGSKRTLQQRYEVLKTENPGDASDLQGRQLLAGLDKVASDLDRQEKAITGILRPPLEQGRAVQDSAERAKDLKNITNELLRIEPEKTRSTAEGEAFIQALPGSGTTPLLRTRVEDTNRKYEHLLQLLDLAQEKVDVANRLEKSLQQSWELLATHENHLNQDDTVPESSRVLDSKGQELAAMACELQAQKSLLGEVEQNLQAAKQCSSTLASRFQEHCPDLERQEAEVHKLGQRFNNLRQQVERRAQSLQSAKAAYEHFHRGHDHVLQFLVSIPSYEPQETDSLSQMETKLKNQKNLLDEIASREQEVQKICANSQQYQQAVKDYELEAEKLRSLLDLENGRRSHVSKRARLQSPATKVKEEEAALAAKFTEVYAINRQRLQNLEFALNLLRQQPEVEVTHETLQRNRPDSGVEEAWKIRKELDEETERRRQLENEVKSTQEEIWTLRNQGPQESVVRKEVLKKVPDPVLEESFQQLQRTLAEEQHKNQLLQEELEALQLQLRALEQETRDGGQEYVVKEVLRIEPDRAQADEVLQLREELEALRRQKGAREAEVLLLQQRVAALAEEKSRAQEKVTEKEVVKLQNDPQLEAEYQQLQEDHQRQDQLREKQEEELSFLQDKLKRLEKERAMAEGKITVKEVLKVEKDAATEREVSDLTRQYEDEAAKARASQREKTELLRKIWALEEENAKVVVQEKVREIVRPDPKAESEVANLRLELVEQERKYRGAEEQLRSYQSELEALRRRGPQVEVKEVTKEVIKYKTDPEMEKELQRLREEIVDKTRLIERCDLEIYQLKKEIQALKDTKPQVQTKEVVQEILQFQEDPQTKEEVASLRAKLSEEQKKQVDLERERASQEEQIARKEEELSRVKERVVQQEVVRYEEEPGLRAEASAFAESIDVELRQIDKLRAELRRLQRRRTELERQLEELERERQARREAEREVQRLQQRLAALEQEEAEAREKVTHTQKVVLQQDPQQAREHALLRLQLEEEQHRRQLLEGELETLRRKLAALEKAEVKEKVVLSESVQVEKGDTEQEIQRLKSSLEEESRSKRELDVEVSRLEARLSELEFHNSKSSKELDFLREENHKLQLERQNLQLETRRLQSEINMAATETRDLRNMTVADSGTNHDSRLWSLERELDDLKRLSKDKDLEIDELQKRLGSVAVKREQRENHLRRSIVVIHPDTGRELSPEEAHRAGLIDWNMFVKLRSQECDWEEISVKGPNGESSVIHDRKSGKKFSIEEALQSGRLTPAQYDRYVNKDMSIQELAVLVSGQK
UniProt Q92817: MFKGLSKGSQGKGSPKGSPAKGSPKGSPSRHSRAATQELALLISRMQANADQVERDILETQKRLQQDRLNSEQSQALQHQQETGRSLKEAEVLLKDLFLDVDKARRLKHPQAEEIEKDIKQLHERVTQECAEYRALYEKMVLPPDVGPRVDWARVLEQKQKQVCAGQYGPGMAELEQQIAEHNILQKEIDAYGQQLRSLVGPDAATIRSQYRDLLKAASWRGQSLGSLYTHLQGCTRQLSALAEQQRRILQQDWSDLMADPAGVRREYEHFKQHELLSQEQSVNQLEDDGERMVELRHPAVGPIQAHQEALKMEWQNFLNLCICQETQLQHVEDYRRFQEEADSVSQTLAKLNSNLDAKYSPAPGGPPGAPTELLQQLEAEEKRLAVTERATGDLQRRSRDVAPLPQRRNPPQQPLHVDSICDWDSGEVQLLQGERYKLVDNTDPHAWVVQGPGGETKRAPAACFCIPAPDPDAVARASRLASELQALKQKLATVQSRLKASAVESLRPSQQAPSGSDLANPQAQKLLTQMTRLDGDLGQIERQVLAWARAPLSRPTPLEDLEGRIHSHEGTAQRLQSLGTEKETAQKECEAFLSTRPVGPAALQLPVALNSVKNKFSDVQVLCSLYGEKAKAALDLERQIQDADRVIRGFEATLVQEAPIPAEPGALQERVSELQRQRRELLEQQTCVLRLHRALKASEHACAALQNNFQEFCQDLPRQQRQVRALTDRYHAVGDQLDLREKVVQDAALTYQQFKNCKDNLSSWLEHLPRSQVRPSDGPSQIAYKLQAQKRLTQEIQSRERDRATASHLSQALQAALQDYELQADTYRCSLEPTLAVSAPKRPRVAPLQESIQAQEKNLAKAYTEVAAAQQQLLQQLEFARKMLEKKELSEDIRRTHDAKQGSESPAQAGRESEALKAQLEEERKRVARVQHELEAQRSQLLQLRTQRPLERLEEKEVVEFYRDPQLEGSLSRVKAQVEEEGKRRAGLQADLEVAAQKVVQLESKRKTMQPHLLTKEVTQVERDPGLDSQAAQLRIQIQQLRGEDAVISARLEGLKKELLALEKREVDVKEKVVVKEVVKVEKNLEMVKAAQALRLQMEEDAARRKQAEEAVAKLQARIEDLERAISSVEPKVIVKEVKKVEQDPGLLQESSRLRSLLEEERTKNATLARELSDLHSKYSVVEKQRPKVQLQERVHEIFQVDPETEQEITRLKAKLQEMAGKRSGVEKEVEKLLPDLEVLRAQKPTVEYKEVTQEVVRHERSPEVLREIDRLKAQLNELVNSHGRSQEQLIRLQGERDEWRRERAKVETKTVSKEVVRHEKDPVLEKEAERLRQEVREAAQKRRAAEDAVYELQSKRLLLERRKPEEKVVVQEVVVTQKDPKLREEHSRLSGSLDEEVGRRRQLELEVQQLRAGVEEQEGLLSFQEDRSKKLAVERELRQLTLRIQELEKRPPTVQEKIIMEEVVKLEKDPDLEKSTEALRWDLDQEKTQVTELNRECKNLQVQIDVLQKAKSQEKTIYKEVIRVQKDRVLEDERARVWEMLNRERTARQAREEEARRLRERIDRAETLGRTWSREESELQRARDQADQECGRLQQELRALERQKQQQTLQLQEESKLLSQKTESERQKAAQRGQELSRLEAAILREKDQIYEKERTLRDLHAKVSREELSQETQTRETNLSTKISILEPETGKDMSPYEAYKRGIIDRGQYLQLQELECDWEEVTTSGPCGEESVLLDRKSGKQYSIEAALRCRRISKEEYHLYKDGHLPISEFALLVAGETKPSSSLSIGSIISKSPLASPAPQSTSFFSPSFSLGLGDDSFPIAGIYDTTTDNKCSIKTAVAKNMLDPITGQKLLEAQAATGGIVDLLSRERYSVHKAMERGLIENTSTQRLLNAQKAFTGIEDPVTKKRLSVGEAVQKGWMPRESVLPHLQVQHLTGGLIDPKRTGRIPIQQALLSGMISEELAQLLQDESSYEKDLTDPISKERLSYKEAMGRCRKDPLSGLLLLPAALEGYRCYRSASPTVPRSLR

| binding | Substance |
| --- | --- |
| binds | periplakin, endogenous in human skin organoids (from UniProt O60437 1-1756) |
| binds | envoplakin, endogenous in human skin organoids (from UniProt Q92817 1-2033) |

Source: article doi:10.1101/2022.01.19.476979 (bioRxiv, 2022)
